Results from the supplement of paper PMC10470496.
Counter-ions that a name gives are not always drawn. Some of the results follow. Many values rest on one well or one pass, so single values are uncertain.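 The strains were three CDC resistance-bank clinical C. auris isolates from clades III, IV and I, cultured in RPMI-1640 at 35°C. Growth was background-corrected OD600 versus vehicle-only wells on the same plate. A hit needed >50% inhibition in two or more strains plus a plate-corrected B-score exceeding 0.1.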

Legend:
Assay in all cases: growth relative to vehicle control (OD600 ratio) (fraction); higher = less inhibition
Conditions in all cases: 24 h
[1] = tested on: C. auris AR-384
[2] = tested on: C. auris AR-386
[3] = tested on: C. auris AR-387

SMILES | growth ([1]; 1 µM) | growth ([1]; 10 µM) | growth ([2]; 1 µM) | growth ([2]; 10 µM) | growth ([3]; 1 µM) | growth ([3]; 10 µM)
C=C1/C(=C\C=C2/CCC[C@]3(C)[C@@H]([C@H](C)CCCC(C)C)CC[C@@H]23)C[C@@H](O)C[C@@H]1O [Alfacalcidol] | 1.28 | 0.81 | 0.71 | 0.88 | 0.79 | 1.15
CCOC(=O)N[C@@H]1CC[C@@H]2[C@@H](C1)C[C@H]1C(=O)O[C@H](C)[C@H]1[C@H]2/C=C/c1ccc(-c2cccc(F)c2)cn1 [Vorapaxar] | 1.01 | 1.09 | 0.82 | 0.81 | 0.79 | 0.98
C[C@H]1[C@H](OC(=O)CCC(=O)O)O[C@@H]2O[C@@]3(C)CC[C@H]4[C@H](C)CC[C@@H]1[C@@]24OO3 [Artesunate] | 1.03 | 0.61 | 1.04 | 0.8 | 0.77 | 0.72
CNNCc1ccc(C(=O)NC(C)C)cc1 [Procarbazine HCl] | 1.09 | 1.2 | 0.94 | 1.22 | 0.97 | 1.24
O=c1[nH]cnc2[nH]ncc12 [Allopurinol Sodium] | 0.79 | 0.51 | 0.68 | 0.73 | 0.7 | 0.76
C[C@@H](O)[C@H]1C(=O)N2C(C(=O)O)=C(SCCNC=N)C[C@H]12 [Imipenem] | 0.79 | 0.6 | 1.06 | 0.48 | 0.71 | 0.91
CC(=O)[C@@]1(O)CC[C@H]2[C@@H]3CCC4=CC(=O)CCC4=C3[C@@H](c3ccc(N(C)C)cc3)C[C@@]21C [Ulipristal] | 0.9 | 1.05 | 0.66 | 0.98 | 0.98 | 0.89
O=C(NCCN1CCOCC1)c1ccc(Cl)cc1 | 0.95 | 0.76 | 1.01 | 1.02 | 0.62 | 0.82
CN(C)c1ccc(C(=C2C=CC(=[N+](C)C)C=C2)c2ccc(N(C)C)cc2)cc1 [Crystal Violet] | 1.25 | 2.44 | 0.81 | 1.33 | 1.25 | 1.03
C#C[C@]1(O)CC[C@H]2[C@@H]3CCC4=CC(=O)CC[C@@H]4[C@H]3CC[C@@]21C [Norethindrone] | 0.89 | 0.85 | 0.67 | 0.78 | 0.77 | 0.94
O=C(O)P(=O)(O)O [Foscarnet Sodium] | 1.36 | 1.14 | 1.33 | 0.91 | 0.96 | 1.02
Cc1ccc(C(=O)N(CCCN)[C@@H](c2nc3cc(Cl)ccc3c(=O)n2Cc2ccccc2)C(C)C)cc1 | 0.89 | 0.73 | 0.8 | 1 | 0.76 | 0.92
CN(C)CCc1c[nH]c2ccc(Cn3cncn3)cc12 [Rizatriptan Benzoate] | 0.95 | 1.37 | 1.42 | 1.09 | 0.92 | 0.88
C[C@]12C=CC(=O)C=C1CC[C@H]1[C@@H]3C[C@@H](O)[C@](O)(C(=O)CO)[C@@]3(C)C[C@H](O)[C@@]12F [Triamcinolone] | 0.72 | 0.89 | 1.08 | 1.08 | 0.82 | 0.78
CCc1ccc(Cc2ccc3c(c2)[C@]2(OC3)O[C@H](CO)[C@@H](O)[C@H](O)[C@H]2O)cc1 [Tofogliflozin(CSG 452)] | 1.13 | 0.96 | 0.76 | 0.99 | 0.84 | 1.05
CNC[C@H](O)c1cccc(O)c1 [Phenylephrine HCl] | 1.03 | 1.06 | 0.96 | 1.78 | 1.39 | 1.48
Cn1c(=O)c2[nH]cnc2n(C)c1=O [Aminophylline] | 0.97 | 0.83 | 0.67 | 0.81 | 0.91 | 0.99
N[C@H]1C(O)O[C@H](CO)[C@@H](O)[C@@H]1O (stereo partly specified) [Glucosamine hydrochloride] | 1.1 | 1.12 | 1.01 | 1.34 | 1.56 | 1.49
CN(Cc1cc(Br)cc(Br)c1N)C1CCCCC1 [Bromhexine HCl] | 0.77 | 1.07 | 0.76 | 0.96 | 1.03 | 0.81
COc1cc(O)c(C(=O)c2ccccc2)cc1S(=O)(=O)O [Sulisobenzone] | 0.7 | 0.76 | 0.69 | 0.94 | 0.76 | 0.67
Nc1nc2c(ncn2COC(CO)CO)c(=O)[nH]1 [Ganciclovir] | 0.83 | 0.87 | 0.71 | 0.71 | 0.7 | 0.6
COC(=O)N[C@H](C(=O)N1CCC[C@H]1c1ncc(-c2ccc(-c3ccc(-c4cnc([C@@H]5CCCN5C(=O)[C@@H](NC(=O)OC)C(C)C)[nH]4)cc3)cc2)[nH]1)C(C)C | 0.85 | 1.01 | 0.79 | 0.87 | 0.86 | 0.96
O=c1c(-c2ccc(O)cc2)coc2cc(O)cc(O)c12 [Genistein] | 0.83 | 0.71 | 0.86 | 0.91 | 0.71 | 0.66

SMILES | growth ([1]; 1 µM) | growth ([1]; 10 µM) | growth ([2]; 1 µM) | growth ([2]; 10 µM) | growth ([3]; 1 µM) | growth ([3]; 10 µM)
OC(Cn1cncn1)(Cn1cncn1)c1ccc(F)cc1F [Fluconazole] | 1.03 | 1.2 | 1.14 | 0.83 | 0.61 | 0.27
O=c1oc2c(O)c(O)cc3c(=O)oc4c(O)c(O)cc1c4c23 [Ellagic acid] | 0.79 | 0.81 | 1.16 | 1.11 | 1.16 | 1.19
O=C1O[C@H](CO)[C@@H](O)[C@H](O)[C@H]1O [Gluconolactone] | 0.92 | 0.95 | 0.88 | 0.79 | 0.71 | 0.8
C=CC(=O)Nc1cccc(Nc2nc(Nc3ccc(N4CCN(C(C)=O)CC4)cc3OC)ncc2C(F)(F)F)c1 [Rociletinib (CO-1686, AVL-301)] | 0.78 | 0.84 | 0.75 | 0.75 | 0.74 | 0.9
CCCCCCCCOc1ccccc1C(=O)Nc1ccc(C(=O)OCC[N+](C)(CC)CC)cc1 [Otilonium Bromide] | 0.96 | 1.32 | 1.16 | 0.6 | 0.69 | 0.96
Cc1ncc([N+](=O)[O-])n1CC(C)O (stereo unspecified) [Secnidazole] | 0.97 | 0.97 | 0.77 | 0.91 | 1.14 | 1.16
CC(C)NCC(O)COc1ccc(CCOCC2CC2)cc1 (stereo unspecified) [Betaxolol HCl] | 1.17 | 1.25 | 1.14 | 1.17 | 0.82 | 1.03
COc1ccccc1OCC(O)CN1CCN(CC(=O)Nc2c(C)cccc2C)CC1 (stereo unspecified) [Ranolazine] | 0.64 | 0.72 | 0.71 | 0.82 | 0.82 | 0.74
Clc1ccc(C(Cn2ccnc2)OCc2c(Cl)cccc2Cl)c(Cl)c1 (stereo unspecified) [Isoconazole nitrate] | 0.8 | 0.34 | 0.74 | 0.67 | 0.15 | 0.1
CC[C@H](c1ccc(O)cc1)[C@@H](CC)c1ccc(O)cc1 [Hexestrol] | 0.92 | 1 | 1.03 | 1.36 | 1.19 | 0.88
CC(=O)OCC(=O)[C@H]1CC[C@H]2[C@@H]3CCC4=CC(=O)CC[C@]4(C)[C@H]3CC[C@]12C [Deoxycorticosterone acetate] | 0.94 | 0.91 | 0.93 | 0.97 | 1.05 | 0.8
N#C[C@@H]1C[C@@H]2C[C@@H]2N1C(=O)[C@@H](N)C12CC3CC(CC(O)(C3)C1)C2 [Saxagliptin] | 0.62 | 0.75 | 0.73 | 0.84 | 0.98 | 0.9
CC(C)C[C@H](NC(=O)[C@@H](NC(=O)c1cccc(-c2ccccc2)n1)[C@@H](C)O)B(O)O | 0.97 | 0.77 | 1.07 | 1.2 | 0.83 | 1.01
Nc1c(CC(=O)O)cccc1C(=O)c1ccc(Br)cc1 [Bromfenac Sodium] | 1.07 | 0.87 | 0.82 | 0.86 | 0.86 | 1.02
Cc1ccnc(NS(=O)(=O)c2ccc(N)cc2)n1 [Sulfamerazine] | 0.73 | 0.73 | 1.29 | 0.65 | 0.91 | 0.75
NCC[C@H](O)C(=O)N[C@@H]1C[C@H](N)[C@@H](O[C@H]2O[C@H](CN)[C@@H](O)[C@H](O)[C@H]2O)[C@H](O)[C@H]1O[C@H]1O[C@H](CO)[C@@H](O)[C@H](N)[C@H]1O [Amikacin hydrate] | 1.19 | 1.32 | 1.04 | 0.98 | 0.82 | 1.3
CC[C@H](Nc1ncnc2[nH]cnc12)c1nc2cccc(F)c2c(=O)n1-c1ccccc1 [Idelalisib (CAL-101, GS-1101)] | 0.74 | 0.79 | 0.76 | 1.3 | 0.7 | 0.72
CC(=O)Oc1cc(C(F)(F)F)ccc1C(=O)O [Triflusal] | 0.87 | 0.94 | 0.68 | 1.09 | 0.84 | 0.72
CN(C)CC(c1ccc(O)cc1)C1(O)CCCCC1 (stereo unspecified) [Desvenlafaxine Succinate] | 0.95 | 0.96 | 1 | 1.08 | 0.96 | 0.82
CCOC(=O)N1c2ccc(C(F)(F)F)cc2[C@@H](N(Cc2cc(C(F)(F)F)cc(C(F)(F)F)c2)C(=O)OC)C[C@H]1CC [Torcetrapib] | 0.66 | 0.88 | 0.77 | 0.67 | 0.62 | 0.63
C#Cc1cccc(Nc2ncnc3cc(OC)c(OCCCCCCC(=O)NO)cc23)c1 | 1.23 | 1.28 | 1.28 | 1 | 1.13 | 1.14
CCCCc1nc(Cl)c(CO)n1Cc1ccc(-c2ccccc2-c2nnn[nH]2)cc1 [Losartan Potassium (DuP 753)] | 0.98 | 0.84 | 1.13 | 1.26 | 1.31 | 1.08
Cc1cccc(CN2CCN(C(c3ccccc3)c3ccc(Cl)cc3)CC2)c1 (stereo unspecified) [Meclizine 2HCl] | 0.74 | 0.74 | 0.65 | 0.76 | 0.7 | 0.81

Part of the list above, set out differently.
SMILES	growth ([1]; 1 µM)	growth ([1]; 10 µM)	growth ([2]; 1 µM)	growth ([2]; 10 µM)	growth ([3]; 1 µM)	growth ([3]; 10 µM)
Cc1ncc([N+](=O)[O-])n1CC(C)O (stereo unspecified) [Secnidazole]	0.97	0.97	0.77	0.91	1.14	1.16
CC(=O)OCC(=O)[C@H]1CC[C@H]2[C@@H]3CCC4=CC(=O)CC[C@]4(C)[C@H]3CC[C@]12C [Deoxycorticosterone acetate]	0.94	0.91	0.93	0.97	1.05	0.8
